Reference: publication PMC8167039, “A Comparative Study of Human and Zebrafish Pregnane X Receptor Activities of Pesticides and Steroids Using In Vitro Reporter Gene Assays” (Frontiers in Endocrinology, 2021)

By UniProt entry, the sequences of proteins in these tests, tags left out.
UniProt A5WYG8, entry or part of it: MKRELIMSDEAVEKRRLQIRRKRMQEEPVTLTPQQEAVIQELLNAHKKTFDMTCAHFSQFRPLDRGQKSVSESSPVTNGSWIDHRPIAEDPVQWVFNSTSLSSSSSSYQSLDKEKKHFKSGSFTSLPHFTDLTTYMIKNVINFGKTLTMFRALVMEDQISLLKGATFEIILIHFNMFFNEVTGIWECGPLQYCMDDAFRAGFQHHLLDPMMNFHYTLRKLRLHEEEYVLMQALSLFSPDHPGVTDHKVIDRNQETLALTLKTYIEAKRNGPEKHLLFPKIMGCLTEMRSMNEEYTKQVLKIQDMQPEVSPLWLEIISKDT

Assays:
[1] = target: T1, zfPXR (Danio rerio, UniProt A5WYG8); assay: cell-based
Protocol: The ability of chemicals to modulate the hPXR and zfPXR was investigated in HG5LN, HG5LN-hPXR, HG5LN-zfPXR, and ZFL-zfPXR cell lines after exposure to serial dilutions of the compounds and measurement of luciferase activity. […] Briefly, cells were seeded in 96-well white opaque flat bottom microplates at 0.5 10^5 cells per well in culture medium. […] Cells were then exposed to a concentration range of the compounds by using an automated workstation (Biomek 3000, Beckman Coulter). The final concentration of DMSO in the well never exceeds 0.1% (v/v). After 16h of exposure, medium was removed and 50 µL of test medium containing 0.3 mM D-luciferin were added per well. After 5 min, the production of light was assessed in living cells using microplate reader (MicroBeta, PerkinElmer SAS, Courtabœuf, France).
In the transactivation assay, each compound was tested at various concentrations in three independent experiments at least. For each experiment, tests were performed in quadruplicates for each concentration, and data are expressed by means values with standard deviations. […] This allowed to determine EC50 and IC50 values of tested chemicals.

[2] = target: T1, zfPXR; assay: HG5LN Gal4-zfPXR luciferase reporter gene assay, antagonism (coexposure with clotrimazole); assay type: cell-based, zebrafish
Protocol: (§1) The cell lines used in this study are listed in Supplementary Table 3 . The HG5LN, HG5LN Gal4-hPXR and HG5LN Gal4-zfPXR cell lines were previously described ([19]). Briefly, HeLa cells stably transfected with the GAL4RE5-βGlobin-Luc-SVNeo plasmid (HG5LN cell line) ([15]). HG5LN cells were stably transfected with the pSG5-GAL4(DBD)-hPXR(LBD)-puro or pSG5-GAL4(DBD)-zfPXR(LBD)-puro plasmids.
(§2) HG5LN cells were cultured in Dulbecco’s Modified Eagle Medium: Nutrient Mixture F-12 (D-MEM/F-12) containing phenol red and 1 g/L glucose and supplemented with 5% fetal bovine serum, 100 units/mL of penicillin and 100 µg/mL of streptomycin supplemented with 1 mg/mL geneticin in a 5% CO2 humidified atmosphere at 37°C. HG5LN GAL4-hPXR and GAL4-zfPXR were cultured in the same culture medium supplemented with 0.5 µg/mL puromycin.
(§3) The ability of chemicals to modulate the hPXR and zfPXR was investigated in HG5LN, HG5LN-hPXR, HG5LN-zfPXR, and ZFL-zfPXR cell lines after exposure to serial dilutions of the compounds and measurement of luciferase activity. […] Briefly, cells were seeded in 96-well white opaque flat bottom microplates at 0.5 10^5 cells per well in culture medium. […] After 5 min, the production of light was assessed in living cells using microplate reader (MicroBeta, PerkinElmer SAS, Courtabœuf, France). […]

[3] = target: T1, zfPXR; assay: HG5LN Gal4-zfPXR luciferase reporter gene assay, agonism; assay type: cell-based, zebrafish
Protocol: as §1, §2, §3

| IC50 [1] [nM] | IC50 [2] [nM] | Structure (SMILES) | EC50 [3] [nM] | EC50 [1] [nM] |
| --- | --- | --- | --- | --- |
| 900 ± 50 | 2800 ± 100 | Clc1ccc(COC(Cn2ccnc2)c2ccc(Cl)cc2Cl)cc1 (stereo not shown) [Econazole nitrate, reference compound] | – | – |
| – | – | Clc1ccccc1C(c1ccccc1)(c1ccccc1)n1ccnc1 [Clotrimazole, reference compound] | 30 ± 2 | 20 ± 2 |
